# Laboratory results published in PubChem BioAssay AID1259415 (National Center for Advancing Translational Sciences (NCATS), 2018).
# The whole screen tested about 410,000 compounds, of which about 18,000 (4.4%) were called active. The inconclusive results got no clear call from the source; some entries with a clear call stand among them for comparison. No stated cut-off is given here; in the data, active means activity change below about -60%; inconclusive means no clear call, values can overlap the other calls; inactive means above about -39%.
# Test: qHTS Assay for inhibitors of the human cytomegalovirus (HCMV)
# Details: HFF cells, HCMV-luciferase reporter, 72 h; at 57.5 µM; hits give low values
# Procedure, shortened: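 Two-dose cell screen: HFF monolayers treated with compounds and infected with luciferase-expressing HCMV at 1 PFU/cell, 72 h at 37C, then lysed for luciferase measurement.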
# On the % scale 0 is the no-effect control and ±100 the full control effect.
row,Structure (SMILES),"activity change, negative = inhibition"
1,COc1ccc2c(C)cc(SCn3nnc4ccccc4c3=O)nc2c1,active: -65.5%
2,COc1ccccc1-n1cnnc1SCC(=O)Nc1cc(C(C)(C)C)nn1-c1ccccc1,inconclusive: -52.9%
3,Cc1cc(C)c2sc(N)nc2c1,inconclusive: -53.9%
4,CCc1ccccc1NC(=O)c1cc(S(=O)(=O)N(CC)c2ccccc2)ccc1F,inconclusive: -40.1%
5,CCN1CCN(CCCN(Cc2ccco2)C(=S)Nc2cc(Cl)ccc2C)CC1,inconclusive: -41.4%
6,CCc1nnc(NC(=O)CN2CCN(c3nc(-c4ccccc4)cs3)CC2)s1,inconclusive: -42.9%
7,CCS(=O)(=O)Nc1cccc(-c2cc(-c3ccccc3)c3cc(C)ccc3n2)c1,inconclusive: -41.8%
8,Oc1c(I)cc(I)c2cccnc12,active: -100%
9,Cc1ccc(-c2nnn(CC(=O)N(c3ccc(F)cc3)C(C(=O)NC3CCCC3)c3ccco3)n2)o1 (stereo unspecified),inconclusive: -42.2%
10,COc1ccc(S(N)(=O)=O)cc1C(=O)OCC1CCCCC1,inconclusive: -53.9%
11,O=[N+]([O-])c1ccc(O)c(/C=N/Nc2ncnc3c2cnn3-c2ccccc2)c1,active: -98.9%
12,C=CCN=c1scc(-c2ccco2)n1/N=C/c1ccc(O)c(O)c1O,inactive: 14.9%
13,COC(=O)c1sc(-c2ccccc2)cc1NC(=O)c1cccc(F)c1,inactive: -2.86%
14,Cc1ccc(NC(=O)c2ccc(N/N=C/c3cccc(O)c3)c([N+](=O)[O-])c2)cc1,active: -87.3%
15,O=C(NCc1ccc2c(c1)OCO2)c1ccc(N2CCCCCC2)c([N+](=O)[O-])c1,inconclusive: -53.5%
16,COc1ccccc1-c1csc(NC(=O)c2cc(-c3cccs3)nc3ccccc23)n1,inconclusive: -54.9%
17,CCOC(=O)N1CCC(N2CCCC(C(=O)c3cc(F)ccc3OC)C2)CC1 (stereo unspecified),inconclusive: -56.8%
18,COc1cccc(C2C(C#N)=C(N)Oc3cc(C)[nH]c(=O)c32)c1OC (stereo unspecified),inconclusive: -42.1%
19,CCC(C)(C)n1nnnc1C(C(C)C)N(Cc1cccnc1)Cc1ccco1 (stereo unspecified),inconclusive: -49.6%
20,Cn1cc([N+](=O)[O-])c(C(=O)Nc2nc(-c3ccc(Cl)cc3)cs2)n1,active: -96.4%
21,CCOc1ccc(CN2CCN(C(=O)c3cccc(F)c3)CC2)cc1,inconclusive: -50.6%
22,COCCNc1nc(NCc2ccccc2OC)c2sccc2n1,inconclusive: -40.8%

# Three compounds already listed, sorted by heavy-atom count, falling.
row,Structure (SMILES),"activity change, negative = inhibition"
15,O=C(NCc1ccc2c(c1)OCO2)c1ccc(N2CCCCCC2)c([N+](=O)[O-])c1,inconclusive: -53.5%
19,CCC(C)(C)n1nnnc1C(C(C)C)N(Cc1cccnc1)Cc1ccco1 (stereo unspecified),inconclusive: -49.6%
13,COC(=O)c1sc(-c2ccccc2)cc1NC(=O)c1cccc(F)c1,inactive: -2.86%

# Additional structures

row,Structure (SMILES),"activity change, negative = inhibition"
1,N#C/C(=C\c1ccc[nH]1)C(=O)Nc1ccccc1F,inactive: 143%
2,c1cc2c(cc1[C@H]1OCC3C1CO[C@@H]3c1ccc3c(c1)OCO3)OCO2 (stereo partly specified),inconclusive: -56.4%
3,CC(C)CCNC(=O)C(c1ccco1)N(Cc1ccc(F)cc1)C(=O)c1snc(C(N)=O)c1N (stereo unspecified),inactive: 16.4%
4,CCOC(=O)CSc1nnc(-c2ccccc2NC(=O)c2ccccc2)o1,inactive: 6.37%
5,CCc1nnc(NC(=O)CSC(=S)N2CCOCC2)s1,active: -97.9%
6,COc1ccc(OC)c(S(=O)(=O)N2CCN(CC(O)COc3ccc(C#N)cc3)CC2)c1 (stereo unspecified),inconclusive: -44.2%
7,CCOC(=O)[C@@H]1[C@H]2COc3cc(OC)ccc3[C@H]2N2C(=O)N(c3cccc(F)c3)C(=O)[C@@]12C,inconclusive: -41.5%
8,CCC(=O)Nc1ccc(NC(=S)NC(=O)c2oc3ccccc3c2C)cc1,inconclusive: -40.9%
9,COc1ccc2oc(=O)c(C(=O)Nc3ccccc3-c3ccccc3)cc2c1,inconclusive: -59.5%
10,NC(=O)c1ccc(NC(=O)CN2CCN(S(=O)(=O)c3ccc4c(c3)OCCO4)CC2)cc1,inactive: -14.3%
11,CCCNC(=O)Cn1nc(C(F)(F)F)cc1C,inconclusive: -41.8%
12,O=C(/C=C/c1ccc(Br)cc1)c1ccc(NC(=O)c2ccco2)cc1,inactive: -29.5%
13,CCCc1cc(=O)oc2cc(C)cc(OC(C)C(=O)NCc3cccnc3)c12 (stereo unspecified),inactive: 13.6%
14,COc1cccc(CNC(=O)c2c(C)nn(-c3cccc(C)c3)c2-n2cccc2)c1,inconclusive: 0%
15,O=C(NCCCc1ccccc1)c1nn(-c2ccccc2F)nc1CO,active: -60.9%
16,COc1cc([N+](=O)[O-])cc(/C=N/NC(=O)C(C)Nc2cccc3ccccc23)c1O (stereo unspecified),active: -61.4%
17,CCCC(C)NC(=O)c1ccc(OCc2ccc(Cl)cc2)c(OC)c1 (stereo unspecified),inconclusive: -41.7%
18,COc1cccc(NS(=O)(=O)c2ccc3[nH]cc(C(=O)NCCCOC(C)C)c(=O)c3c2)c1,inconclusive: -47.1%
19,c1ccc(N/N=C(\Cc2nc3ccccc3[nH]2)c2ccccc2)cc1,inactive: 31%
20,COC(=O)[C@@]1(Cc2ccc(F)cc2)[C@H]2c3cc(C(=O)N(C)C)n(CCc4c[nH]c5ccc(OC)cc45)c3C[C@H]2CN1C(=O)c1ccccc1,active: -82.3%
21,O=C(NCCc1nc2ccccc2[nH]1)c1ccc([N+](=O)[O-])cc1,inactive: 34.1%
22,CC(=O)Oc1ccc(C(=O)Nc2cccnc2)cc1,inactive: 35.2%

row,Structure (SMILES),"activity change, negative = inhibition"
1,CC(C)c1cc(C(=O)N(C)C2CCCN(Cc3ccccc3F)C2)n(C)n1 (stereo unspecified),inconclusive: -51.1%
2,O=C(CN1C(=O)NC2(CCc3ccccc32)C1=O)c1ccc(F)c(F)c1 (stereo unspecified),inactive: -35.5%
3,O=C(CN1C(=O)C2CCCCC2C1=O)Nc1cc([N+](=O)[O-])ccc1F (stereo unspecified),inactive: 5.1%
4,CCOc1ccc(OCCC(=O)N(CC(C)C)c2c(N)n(Cc3ccccc3)c(=O)[nH]c2=O)cc1,inconclusive: -42.7%
5,COc1ccc(C2c3ccc4ccccc4c3Oc3ncn(CCCN(C)C)c(=N)c32)cc1 (stereo unspecified),active: -63.8%
6,Cc1ccc(COc2ccsc2C(=O)NN)cc1,inconclusive: -54.8%
7,COc1ccc(CN2C(=O)C(n3c(C)ccc3C)c3cc(OC(F)(F)F)ccc32)cc1 (stereo unspecified),active: -87.9%
8,CC(C)(C)c1ccc(-c2cc(-c3ccccc3O)[nH]n2)cc1,active: -95.4%
9,C=CCn1c[n+](CC(=O)c2ccc(Br)s2)c2ccccc21,inactive: -6.79%
10,Cc1cc(C)cc(C(=O)N2CC(C)SC2=Nc2cccc(S(=O)(=O)N(C)C)c2)c1 (stereo unspecified),inconclusive: -47.5%
11,COc1cccc(NC(=O)CCNS(=O)(=O)c2ccc3c(c2)CC(C)N3C(=O)C2CC2)c1 (stereo unspecified),active: -70.8%
12,COc1ccc(OCC(=O)Nc2nc3c(s2)CCCC3)cc1,inconclusive: -44.1%
13,Cc1ccc(CCNC(=O)CCc2cn(Cc3ccccc3C)c3ccccc23)cc1,inactive: -16.6%
14,COc1ccc(NC(=O)C2Cc3c(-c4ccc(Cl)cc4)ccnc3O2)cc1OC (stereo unspecified),active: -78.4%
15,O=C(N/N=C/c1ccco1)c1ccc(NC(=O)C2CCCCC2)cc1,inconclusive: -44.4%
16,COc1ccc2oc(C(=O)OC(C)C(=O)NC3(C#N)CCCCC3)c(C)c2c1 (stereo unspecified),inconclusive: -41.5%
17,CN1CCN(c2ccc(-c3cc(NC=O)c4ncc(-c5ccc(F)c(Cl)c5)n4c3)cc2)CC1,active: -92.1%
18,O=C(c1cc(COc2c(F)cccc2F)on1)N1CCCCCC1,inactive: 4.07%
19,CCOc1ccc(NC(=O)CN2CCCC2c2cccs2)cc1S(=O)(=O)N1CCCCC1 (stereo unspecified),inconclusive: -56.6%
20,Cc1cccc2cc(CN(Cc3nnnn3Cc3ccco3)C3CCCC3)c3nnnn3c12,inconclusive: -58.7%
21,COc1ccc(CC(=O)Nc2ccc3nc(Nc4cccc(Cl)c4)cc(C)c3c2)cc1OC,active: -68.6%
22,CCc1c(C)nc2cc(-c3cccc(Br)c3)[nH]n2c1=O,inactive: 24%

row,Structure (SMILES),"activity change, negative = inhibition"
1,CSc1ccc(CNC2CN3CCC2CC3)cc1 (stereo unspecified),inactive: 51.8%
2,Cc1cc(C)n2nc(C(=O)NC(c3ccccc3)c3ccccc3)nc2n1,active: -74.1%
3,COc1ccc(NS(=O)(=O)c2cc(NC(=O)Cc3n[nH]c(=O)c4ccccc34)ccc2OC)cc1,inactive: 0%
4,O=C(Nc1nonc1-c1ccc(F)cc1)c1ccco1,inconclusive: -40.6%
5,NC(=O)CSc1nnc2n(-c3ccccc3)c(=O)c3c4c(sc3n12)CCCCC4,inconclusive: -45%
6,CCC(c1nnc(SCC(=O)NCC2CCCO2)n1Cc1ccccc1)N(C)C (stereo unspecified),inconclusive: -49.8%
7,CSc1ncnc2[nH]ccc12,inconclusive: -45.2%
8,O=C(CN1CCCC1)Nc1sc2c(c1C(=O)Nc1ccc(Br)cc1)CCC2,inactive: 37.2%
9,COc1ccc(S(=O)(=O)N(Cc2nc(-c3ccc(C)cc3)no2)C2CCCCC2)cc1,inconclusive: -41.1%
10,CCN(CC)CCCNC(=O)c1ccc(OCC(=O)Nc2ccccc2C(F)(F)F)c(OC)c1,inactive: -33%
11,O=C(CN1CCN(c2ccc(O)cc2)CC1)Nc1cc(S(=O)(=O)N2CCCCC2)ccc1Cl,active: -74%
12,Cc1cc(C)n(CC(=O)NC2CCCCC2C)c(=O)c1C#N (stereo unspecified),inactive: -36.3%
13,O=C(CC1SC(N2CCCC2)=NC1=O)Nc1ccc(C(=O)Nc2ncccc2O)cc1 (stereo unspecified),inactive: -14.4%
14,CCC(=O)N1CCNC(=O)C1CC(=O)Nc1ccc(C)c(Cl)c1 (stereo unspecified),inconclusive: -49.6%
15,COc1cccc(OC)c1-c1nn2c(-c3cc(-c4ccccc4)n[nH]3)nnc2s1,inconclusive: -56.1%
16,Cc1onc(-c2ccccc2)c1C(=O)NC(=S)NNC(=O)c1ccc(O)cc1O,active: -95.3%
17,Cc1cc(S(=O)(=O)NCc2ccncc2)c(C)cc1Br,active: -87.5%
18,CCN1CCN(CC(O)COC(c2ccccc2)c2ccccc2)CC1 (stereo unspecified),inconclusive: -57%
19,c1csc(-c2nnc(COc3ccc4c(c3)OCO4)o2)c1,inconclusive: -40.4%
20,O=C1/C(=C\c2cc3c(cc2Cl)OCO3)N2CCC1CC2,inconclusive: -51.5%
